Sequences and labels used below:
T1: FLAG-tagged ECT2 of ECT2:ECT2/ect2-1 plants (Arabidopsis thaliana) (UniProt Q9LJE5)
T1 sequence: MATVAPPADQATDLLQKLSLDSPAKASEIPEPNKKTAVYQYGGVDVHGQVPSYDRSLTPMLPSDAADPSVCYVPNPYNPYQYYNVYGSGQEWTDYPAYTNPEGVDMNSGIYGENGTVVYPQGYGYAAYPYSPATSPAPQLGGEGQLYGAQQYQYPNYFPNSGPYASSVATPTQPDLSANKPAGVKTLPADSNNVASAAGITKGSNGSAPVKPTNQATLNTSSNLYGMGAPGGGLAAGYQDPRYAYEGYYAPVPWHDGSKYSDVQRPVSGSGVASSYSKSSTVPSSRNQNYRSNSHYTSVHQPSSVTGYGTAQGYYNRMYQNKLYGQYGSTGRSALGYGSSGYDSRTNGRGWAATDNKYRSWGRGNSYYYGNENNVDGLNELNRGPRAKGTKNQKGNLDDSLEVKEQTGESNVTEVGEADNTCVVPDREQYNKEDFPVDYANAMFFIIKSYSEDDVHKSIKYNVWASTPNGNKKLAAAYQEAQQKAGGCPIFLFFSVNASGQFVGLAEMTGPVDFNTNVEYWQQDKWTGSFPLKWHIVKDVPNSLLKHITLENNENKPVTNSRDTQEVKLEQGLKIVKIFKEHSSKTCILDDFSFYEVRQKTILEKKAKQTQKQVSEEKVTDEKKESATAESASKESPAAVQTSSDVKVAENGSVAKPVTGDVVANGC

B1: MBP-tagged PAB4 (natural protein, Arabidopsis thaliana, UniProt O22173 1-662, looked up)
chain: MAQVQAPSSHSPPPPAVVNDGAATASATPGIGVGGGGDGVTHGALCSLYVGDLDFNVTDSQLYDYFTEVCQVVSVRVCRDAATNTSLGYGYVNYSNTDDAEKAMQKLNYSYLNGKMIRITYSSRDSSARRSGVGNLFVKNLDKSVDNKTLHEAFSGCGTIVSCKVATDHMGQSRGYGFVQFDTEDSAKNAIEKLNGKVLNDKQIFVGPFLRKEERESAADKMKFTNVYVKNLSEATTDDELKTTFGQYGSISSAVVMRDGDGKSRCFGFVNFENPEDAARAVEALNGKKFDDKEWYVGKAQKKSERELELSRRYEQGSSDGGNKFDGLNLYVKNLDDTVTDEKLRELFAEFGTITSCKVMRDPSGTSKGSGFVAFSAASEASRVLNEMNGKMVGGKPLYVALAQRKEERRAKLQAQFSQMRPAFIPGVGPRMPIFTGGAPGLGQQIFYGQGPPPIIPHQPGFGYQPQLVPGMRPAFFGGPMMQPGQQGPRPGGRRSGDGPMRHQHQQPMPYMQPQMMPRGRGYRYPSGGRNMPDGPMPGGMVPVAYDMNVMPYSQPMSAGQLATSLANATPAQQRTLLGESLYPLVDQIESEHAAKVTGMLLEMDQTEVLHLLESPEALNAKVSEALDVLRNVNQPSSQGSEGNKSGSPSDLLASLSINDHL
notes: also called MBP-PAB4; source: Escherichia coli BL-21 Gold, purified (amylose resin)
B2: MBP-tagged PAB2 (natural protein, Arabidopsis thaliana, UniProt P42731 1-629, looked up)
chain: MAQVQLQGQTPNGSTAAVTSAPATSGGATATQFGNTSLYVGDLDFNVTDSQLFDAFGQMGTVVTVRVCRDLVTRRSLGYGYVNFTNPQDAARAIQELNYIPLYGKPIRVMYSHRDPSVRRSGAGNIFIKNLDESIDHKALHDTFSSFGNIVSCKVAVDSSGQSKGYGFVQYANEESAQKAIEKLNGMLLNDKQVYVGPFLRRQERDSTANKTKFTNVYVKNLAESTTDDDLKNAFGEYGKITSAVVMKDGEGKSKGFGFVNFENADDAARAVESLNGHKFDDKEWYVGRAQKKSERETELRVRYEQNLKEAADKFQSSNLYVKNLDPSISDEKLKEIFSPFGTVTSSKVMRDPNGTSKGSGFVAFATPEEATEAMSQLSGKMIESKPLYVAIAQRKEDRRVRLQAQFSQVRPVAMQPSVGPRMPVYPPGGPGIGQQMFYGQAPPAMIPPQPGYGYQQQLVPGMRPGGGPVPSFFMPMVQPQQQRPGGGRRPGGIQHSQQQNPMMQQQMHPRGRMFRYPQGRGGSGDVPPYDMGNNMPLTIGALASNLSNATPEQQRTMLGEVLYPLVEQVEAESAAKVTGMLLEMDQTEVLHLLESPEALKAKVAEAMDVLRSVAAGGATEQLASLNLS
notes: also called MBP-PAB2; source: Escherichia coli BL-21 Gold, purified (amylose resin)
B3: maltose-binding protein (MBP)-tagged ECT3 (natural protein, Arabidopsis thaliana, UniProt F4K1Z0 1-495, looked up)
chain: MANPDHVSDVLHNLSIDPTTKALAPDSETKLQGAYGGNGNDFLLNDELVEATKIGKPSLLSKDGGVTKDKGSNLKKLGYQSAAYNAKGSYGKGAYAYGYYPPAYQYPRHGYTGSYASGKTNLQYQYLTQQGRSAGNGQSYGGYMDNIYSNYGMCGPYTNGYGYGSYGYDSWKYMPNWYAVNNTYKPRNGYHGYGKENIEGLNEMNRGPRAKGFNSQDGSKVMAVSLKEQRVTETEKLSEDVSLLDPKDYNKIDFPETYTEAKFYVIKSYSEDDIHKSIKYSVWSSTPNGNKKLDASYNEAKQKSDGCPVFLLFSVNTSGQFVGLAEMVGPVDFNKTVEYWQQDKWIGCFPVKWHFVKDIPNSSLRHITLENNENKPVTNSRDTQEVKLEQGIKVIKIFKDHASKTCILDDFEFYENRQKIIQERKSKHLQIKKQTLVANADKGVMSKINLVKPQESTTASEDAAALGVAAEVTKESKVVKETELPVEKNAVATAC
notes: also called MBP-ECT3; source: Escherichia coli, purified recombinant protein

No constants are given. Whether binding was seen depends on the method and setting. Binding seen in cells or lysates may run through a third protein. Here binding means that the protein was enriched with, or labelled near, the bait; the list need not be complete. Tags and fused reporters may be left off the sequences shown.

In the experiment the target is T1, FLAG-tagged ECT2 of ECT2:ECT2/ect2-1 plants (Arabidopsis thaliana). Nature of the experiment: affinity purification with mass spectrometry; FA-IP/MS: 12-day-old ECT2:ECT2/ect2-1 seedlings fixed with 1% formaldehyde; lysate immunoprecipitated with anti-Flag M2 beads (control IgG), with and without RNase T1 treatment; eluted with 3xFlag peptide.
For B1, the binding result is on record as “binds”.
To B2 belongs “binds”.
In the case of B3 it was “binds”.

The values are drawn from publication PMC10150487, “m^6A readers ECT2/ECT3/ECT4 enhance mRNA stability through direct recruitment of the poly(A) binding proteins in Arabidopsis” (Genome Biology, 2023).
